Results: US20160209428A1, “DIAGNOSTIC AND PREDICTIVE METABOLITE PATTERNS FOR DISORDERS AFFECTING THE BRAIN AND NERVOUS SYSTEM” (THE REGENTS OF THE UNIVERSITY OF CALIFORNIA, priority 2013, published 2016)

Test system: not listed separately
Assay: PTSD metabolomics: LC-MS/MS of metabolites, PTSD subjects vs controls, PLSDA
Design: species or system human
Settings: ratio of metabolite amount, 18 PTSD vs 20 control
For `NC(=O)c1ncn([C@@H]2O[C@H](COP(=O)(O)O)[C@@H](O)[C@H]2O)c1N` [AICAR], the PTSD/Control was 1.15.
`Nc1ncnc2c1ncn2[C@@H]1O[C@H](COP(=O)(O)O)[C@@H](O)[C@H]1O` [Adenosine monophosphate] gave a PTSD/Control of 0.8009.
Compound `C[C@H](N)C(=O)O` [Alanine] has a PTSD/Control of 0.9055.
In the case of `CCCCC/C=C\C/C=C\C/C=C\C/C=C\CCCC(=O)O` [Arachidonic Acid], the PTSD/Control is reported as 1.171.
`C[C@H](CCC(=O)NCC(=O)O)[C@H]1CC[C@H]2[C@@H]3[C@H](O)C[C@@H]4C[C@H](O)CC[C@]4(C)[C@H]3C[C@H](O)[C@]12C` [Glycocholic acid] showed a PTSD/Control of 0.7173.
With `Nc1nc2c(ncn2[C@@H]2O[C@H](COP(=O)(O)O)[C@@H](O)[C@H]2O)c(=O)[nH]1` [Guanosine monophosphate] the PTSD/Control was 0.9072.
`O=C(O)C=Cc1c[nH]c2ccccc12` [Indoleacrylic acid] gave a PTSD/Control of 0.9385.
Work on `N[C@@H](CO)C(=O)O` [L-Serine] yielded a PTSD/Control of 1.115.
In the case of `N[C@@H](Cc1c[nH]c2ccccc12)C(=O)O` [L-Tryptophan], the PTSD/Control is reported as 0.9265.
Compound `N[C@@H](Cc1ccc(O)cc1)C(=O)O` [L-Tyrosine] has a PTSD/Control of 0.9049.
`CCCCC/C=C\C/C=C\CCCCCCCC(=O)O` [Linoleic acid] showed a PTSD/Control of 1.24.
`CN[C@@H](CS)C(=O)O` [Methylcysteine] showed a PTSD/Control of 0.9101.
In the case of `CC(=O)N[C@@H](CC(=O)O)C(=O)O` [N-Acetyl-L-aspartic acid], the PTSD/Control is reported as 1.314.
Compound `CC(=O)N[C@@H](CC(=O)O)C(=O)N[C@@H](CCC(=O)O)C(=O)O` [N-Acetylaspartylglutamic acid] (Ac-Asp-Glu-OH) has a PTSD/Control of 1.166.
`O=C([NH2+][O-])c1cccnc1` [Nicotinamide N-oxide] showed a PTSD/Control of 1.395.
Compound `CCCCCCCC/C=C\CCCCCCCC(=O)O` [Oleic acid] has a PTSD/Control of 1.297.
Compound `CC1=C(/C=C/C(C)=C/C=C/C(C)=C/CO)C(C)(C)CCC1` [Retinol] has a PTSD/Control of 0.8755.
Work on `CCCCCCCCCCCCC/C=C/[C@@H](O)[C@H](COP(=O)([O-])OCC[N+](C)(C)C)NC(=O)CCCCCCCCCCC` [SM(d18:1/12:0)] yielded a PTSD/Control of 0.8917.
In the case of `CNCC(=O)O` [Sarcosine], the PTSD/Control is reported as 0.9121.
`O=c1[nH]c(=O)c2[nH]cnc2[nH]1` [Xanthine] showed a PTSD/Control of 0.8533.

Test system: Fragile X (Fmr1) knockout mouse
Assay: Plasma metabolomics after weekly suramin or saline, Fragile X model
Type: in vivo
Settings: KO-Suramin vs KO-Saline, Fmr1 knockout mice, PLSDA
Method: Samples were analyzed on an AB SCIEX QTRAP 5500 triple quadrupole mass spectrometer equipped with a Turbo V electrospray ionization (ESI) source, Shimadzu LC-20A UHPLC system, and a PAL CTC autosampler (AB ACIEX, Framingham, Mass., USA). […] Plasma was separated by centrifugation at 600 g×5 minutes at 20° C. within one hour of collection. Fresh lithium-heparin plasma was transferred to labeled tubes for storage at −80° C. for analysis. Typically 45 μl of plasma was thawed on ice and transferred to a 1.7 ml Eppendorf tube. Two and one-half (2.5) μl of a cocktail containing 35 commercial stable isotope internal standards, and 2.5 μl of 310 stable isotope internal standards that were custom-synthesized in E. coli and S. cerevisiae by metabolic labeling with ^13C-glucose and ^13C-bicarbonate, were added, mixed, and incubated for 10 min at room temperature to permit small molecules and vitamins in the internal standards to associate with plasma binding proteins. Macromolecules (protein, DNA, RNA, etc.) were precipitated by extraction with 4 volumes (200 μl) of cold (−20° C.), acetonitrile:methanol (50:50) (LCMS grade, Cat#LC015-2.5 and GC230-4, Burdick & Jackson, Honeywell), vortexed vigorously, and incubated on crushed ice for 10 min, then removed by centrifugation at 16,000 g×10 min at 4° C. The supernatants containing the extracted metabolites and internal standards in the resulting 40:40:20 solvent mix of acetonitrile:methanol:water were transferred to labeled cryotubes and stored at −80° C. for LC-MS/MS (liquid chromatography-tandem mass spectrometry) analysis.
LC-MS/MS analysis was performed by multiple reaction monitoring (MRM) under Analyst v1.6.1 (AB SCIEX, Framingham, Mass., USA) software control in both negative and positive mode with rapid polarity switching (50 ms). Nitrogen was used for curtain gas (set to 30), collision gas (set to high), ion source gas 1 and 2 (set to 35). The source temperature was 500° C. Spray voltage was set to −4500 V in negative mode and 5500 V in positive mode. The values for Q1 and Q3 mass-to-charge ratios (m/z), declustering potential (DP), entrance potential (EP), collision energy (CE), and collision cell exit potential (CXP) were determined and optimized for each MRM for each metabolite. Ten microliters of extract was injected by PAL CTC autosampler into a 250 mm×2 mm, 5 μm Luna NH2 aminopropyl HPLC column (Phenomenex, Torrance, Calif., USA) held at 25° C. for chromatographic separation. […] The flow rate was 300 μl/min. All the samples were kept at 4° C. during analysis. The chromatographic peaks were identified using MultiQuant (v3.0, AB SCIEX), confirmed by manual inspection, and the peak areas integrated. The median of the peak area of stable isotope internal standards was calculated and used for the normalization of metabolites concentration across the samples and batches. Prior to multivariate and univariate analysis, the data were log-transformed.
A rendering of mammalian intermediary metabolism was constructed in Cytoscape v 3.1.1 (see, e.g., [http://]www.cytoscape.org/). […] Nodes in the Cytoscape network represent metabolites within the pathways and have been colored according to the Z-score. The Z-score was computed as the arithmetic difference between the mean concentration of each metabolite in the KO-Sur treatment group and the KO-Sal control group, divided by the standard deviation in the controls. Node colors were arranged on a red-green color scale with green representing −2.00 Z-score, red representing +2.00 Z-score, and with a zero (0) Z-score represented as white.
Group means and standard error of the means (SEM) are reported. Behavioral data were analyzed by two-way ANOVA and one-way ANOVAs (GraphPad Prism 5.0d, GraphPad Software Inc., La Jolla, Calif., USA, or Stata/SE v12.1, StataCorp, College Station, Tex., USA). Pair-wise post hoc testing was performed by the method of Tukey or Newman-Keuls. Significance was set at p<0.05.
With `NC(=O)c1ncn([C@@H]2O[C@H](COP(=O)(O)O)[C@@H](O)[C@H]2O)c1N` [AICAR] the “VIP Score, metabolites changed by antipurinergic therapy” value (shortened to “VIP Score, metabolites changed”) was 1.5150.
In the case of `O=C([NH2+][O-])c1cccnc1` [Nicotinamide N-oxide], the “VIP Score, metabolites changed” value is reported as 1.724.
With `O=c1[nH]c(=O)c2[nH]cnc2[nH]1` [Xanthine] the “VIP Score, metabolites changed” value was 8.283.

Where a SMILES comes first, the peptide text is derived from it.
